In patent US20190233542A1:
No constants are given. Whether binding was seen depends on the method and setting. Some results given as binding are weak or reduced against the parent protein; the word gives no strength.

Chains of the proteins cited; added tags and fusions are not shown. Residues count along the entry.
UniProt Q8NBP7, residues 31-692: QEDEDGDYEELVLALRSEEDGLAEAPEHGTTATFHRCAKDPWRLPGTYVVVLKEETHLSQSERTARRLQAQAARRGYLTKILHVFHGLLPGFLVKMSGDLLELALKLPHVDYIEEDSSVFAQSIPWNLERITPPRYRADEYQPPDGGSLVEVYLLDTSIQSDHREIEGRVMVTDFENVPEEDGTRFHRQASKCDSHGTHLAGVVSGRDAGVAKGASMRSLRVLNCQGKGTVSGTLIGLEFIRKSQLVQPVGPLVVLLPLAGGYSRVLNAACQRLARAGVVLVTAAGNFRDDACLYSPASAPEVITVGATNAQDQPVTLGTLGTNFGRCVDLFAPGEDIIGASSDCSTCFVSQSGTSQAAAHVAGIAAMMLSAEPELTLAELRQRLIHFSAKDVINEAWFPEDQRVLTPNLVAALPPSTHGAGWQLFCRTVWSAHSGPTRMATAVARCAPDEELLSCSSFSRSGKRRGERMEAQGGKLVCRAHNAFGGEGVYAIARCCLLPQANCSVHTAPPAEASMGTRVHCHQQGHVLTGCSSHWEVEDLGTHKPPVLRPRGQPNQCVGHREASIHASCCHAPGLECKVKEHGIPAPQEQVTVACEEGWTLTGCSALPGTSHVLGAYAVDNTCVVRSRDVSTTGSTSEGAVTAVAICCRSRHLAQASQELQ

Legend:
[1] = target: human PCSK9 (Proprotein Convertase Subtilisin/Kexin type 9) (human) (UniProt Q8NBP7); experiment: ELISA
[2] = target: human PCSK9 (Proprotein Convertase Subtilisin/Kexin type 9) (human) (UniProt Q8NBP7); experiment: ELISA, antibody titrated on human PCSK9, A450
[3] = target: human PCSK9 (Proprotein Convertase Subtilisin/Kexin type 9) (human) (UniProt Q8NBP7); experiment: ELISA on streptavidin-captured biotin-labeled PCSK9 after incubation in human serum
[4] = target: human PCSK9-mFc-biotin (human) (UniProt Q8NBP7); experiment: competitive ELISA: antibody titrated against the binding of PCSK9 to LDL-R, A450
[5] = target: human PCSK9 (Proprotein Convertase Subtilisin/Kexin type 9) (human) (UniProt Q8NBP7); experiment: ELISA on biotin-labeled PCSK9 captured on streptavidin, antibody diluted from human serum after 0 or 3 days at 37 C, goat anti-human-HRP

Measured: binding

B1: 17.72.3-uAb2-IgG4K (antibody, V domains shown)
VH: QVQLQESGPGLVKPSGTLSLTCAVSGGSIRSYNWWSWVRQPPGEGLEWIGEIHHSGTTNYNPSLKSRVTISVDKSKNQFSLKLSSVTAADTAVYYCARDYSGSYFDYWGQGTLVTVSS
VL: EVVLTQSPATLSLSPGERATLSCRTSQSLSSYVAWSQQKPGQAPRLLIYDASKRATGVPARFSGSGSGTDFTLTISNLEPEDFAVYYCHQRGNWMSSFGQGTKLEIK
binds: [1] | [2] | [3] | [4] | [5]
